Experimental data from publication PMC4259352.
These are yes or no findings as the source states them, for the method shown. Binding seen in cells or lysates may run through a third protein. Some binding calls cover weakened binding; strength is not graded here.

Amino acid sequences for entries named in this document (tags omitted).
UniProt O60934: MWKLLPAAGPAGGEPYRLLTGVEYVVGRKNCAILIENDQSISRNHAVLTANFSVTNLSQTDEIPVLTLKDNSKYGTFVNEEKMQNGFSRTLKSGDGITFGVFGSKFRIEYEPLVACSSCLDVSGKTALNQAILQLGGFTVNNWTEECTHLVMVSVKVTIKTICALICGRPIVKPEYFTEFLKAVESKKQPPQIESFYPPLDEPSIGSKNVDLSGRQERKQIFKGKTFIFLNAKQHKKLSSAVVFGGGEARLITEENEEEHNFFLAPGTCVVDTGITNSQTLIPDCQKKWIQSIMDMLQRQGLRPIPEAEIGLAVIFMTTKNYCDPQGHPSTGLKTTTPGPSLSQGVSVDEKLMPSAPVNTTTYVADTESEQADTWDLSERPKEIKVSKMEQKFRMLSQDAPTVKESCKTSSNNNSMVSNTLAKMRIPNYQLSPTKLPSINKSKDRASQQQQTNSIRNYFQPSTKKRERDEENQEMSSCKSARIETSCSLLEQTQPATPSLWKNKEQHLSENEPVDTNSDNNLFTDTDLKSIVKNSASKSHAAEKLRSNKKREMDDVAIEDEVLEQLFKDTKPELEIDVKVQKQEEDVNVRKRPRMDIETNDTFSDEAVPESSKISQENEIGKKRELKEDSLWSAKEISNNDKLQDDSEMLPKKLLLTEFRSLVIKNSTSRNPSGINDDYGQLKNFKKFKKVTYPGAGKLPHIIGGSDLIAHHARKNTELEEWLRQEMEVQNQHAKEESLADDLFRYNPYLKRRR
UniProt O96017: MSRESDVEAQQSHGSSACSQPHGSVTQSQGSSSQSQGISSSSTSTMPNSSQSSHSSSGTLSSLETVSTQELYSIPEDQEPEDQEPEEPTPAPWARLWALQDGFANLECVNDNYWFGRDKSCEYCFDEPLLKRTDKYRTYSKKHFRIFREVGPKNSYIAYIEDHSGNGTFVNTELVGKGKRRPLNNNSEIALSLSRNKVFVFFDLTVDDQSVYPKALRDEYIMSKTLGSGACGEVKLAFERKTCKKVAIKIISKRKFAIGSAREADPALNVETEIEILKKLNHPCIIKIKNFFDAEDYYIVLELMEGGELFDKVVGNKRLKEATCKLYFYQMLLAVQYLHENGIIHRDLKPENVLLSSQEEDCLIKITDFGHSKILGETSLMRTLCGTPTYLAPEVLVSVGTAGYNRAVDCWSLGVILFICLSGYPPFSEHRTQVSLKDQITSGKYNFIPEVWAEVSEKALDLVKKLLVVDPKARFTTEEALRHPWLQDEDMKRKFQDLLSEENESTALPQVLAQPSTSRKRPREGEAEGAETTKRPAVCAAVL
UniProt P09874: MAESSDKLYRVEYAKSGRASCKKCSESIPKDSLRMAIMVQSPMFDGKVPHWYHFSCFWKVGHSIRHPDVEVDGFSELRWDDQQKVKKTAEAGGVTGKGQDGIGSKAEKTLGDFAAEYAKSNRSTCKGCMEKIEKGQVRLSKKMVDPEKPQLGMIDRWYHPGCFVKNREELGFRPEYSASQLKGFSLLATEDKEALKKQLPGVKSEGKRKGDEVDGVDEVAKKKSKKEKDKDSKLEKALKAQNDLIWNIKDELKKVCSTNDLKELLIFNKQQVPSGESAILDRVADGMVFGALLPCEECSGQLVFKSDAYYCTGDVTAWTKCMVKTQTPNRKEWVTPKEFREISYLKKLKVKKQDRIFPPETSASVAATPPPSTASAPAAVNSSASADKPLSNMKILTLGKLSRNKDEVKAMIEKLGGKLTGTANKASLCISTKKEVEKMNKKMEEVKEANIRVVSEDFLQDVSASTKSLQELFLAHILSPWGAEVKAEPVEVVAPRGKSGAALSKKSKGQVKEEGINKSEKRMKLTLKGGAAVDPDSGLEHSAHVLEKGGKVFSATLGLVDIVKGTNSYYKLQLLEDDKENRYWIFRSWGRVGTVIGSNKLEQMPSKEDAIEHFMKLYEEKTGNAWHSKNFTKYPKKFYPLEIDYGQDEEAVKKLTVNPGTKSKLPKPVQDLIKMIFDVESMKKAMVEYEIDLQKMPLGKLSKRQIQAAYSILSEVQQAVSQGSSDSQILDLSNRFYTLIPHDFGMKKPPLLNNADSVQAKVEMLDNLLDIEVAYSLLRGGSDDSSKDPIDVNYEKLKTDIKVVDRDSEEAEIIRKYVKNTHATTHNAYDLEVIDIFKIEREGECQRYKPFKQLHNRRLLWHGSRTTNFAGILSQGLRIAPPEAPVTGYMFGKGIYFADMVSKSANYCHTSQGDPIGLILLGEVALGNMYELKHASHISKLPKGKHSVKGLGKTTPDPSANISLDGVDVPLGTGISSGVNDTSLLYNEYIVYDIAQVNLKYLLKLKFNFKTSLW
UniProt P23497: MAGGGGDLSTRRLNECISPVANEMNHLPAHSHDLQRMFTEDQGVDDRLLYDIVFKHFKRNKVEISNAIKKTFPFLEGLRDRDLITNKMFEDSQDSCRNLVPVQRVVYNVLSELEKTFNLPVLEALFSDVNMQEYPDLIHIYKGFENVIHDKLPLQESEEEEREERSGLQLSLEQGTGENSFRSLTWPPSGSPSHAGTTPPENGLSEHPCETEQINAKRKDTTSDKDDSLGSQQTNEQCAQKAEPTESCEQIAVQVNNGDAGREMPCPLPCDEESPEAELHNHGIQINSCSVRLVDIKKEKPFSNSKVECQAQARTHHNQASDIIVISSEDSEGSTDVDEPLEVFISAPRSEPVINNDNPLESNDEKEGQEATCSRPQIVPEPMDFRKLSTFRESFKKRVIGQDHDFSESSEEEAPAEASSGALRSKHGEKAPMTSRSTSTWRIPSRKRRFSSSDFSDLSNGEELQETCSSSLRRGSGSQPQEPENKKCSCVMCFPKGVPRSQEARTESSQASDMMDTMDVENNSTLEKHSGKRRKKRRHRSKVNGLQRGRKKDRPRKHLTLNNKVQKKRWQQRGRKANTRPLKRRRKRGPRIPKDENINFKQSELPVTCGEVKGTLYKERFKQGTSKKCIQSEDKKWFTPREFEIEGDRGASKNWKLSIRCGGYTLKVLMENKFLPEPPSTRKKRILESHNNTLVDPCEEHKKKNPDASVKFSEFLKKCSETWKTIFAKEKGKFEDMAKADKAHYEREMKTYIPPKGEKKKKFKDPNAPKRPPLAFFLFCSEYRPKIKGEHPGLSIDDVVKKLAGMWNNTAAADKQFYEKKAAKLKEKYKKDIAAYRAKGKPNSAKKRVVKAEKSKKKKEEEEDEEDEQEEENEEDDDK

Assays:
[1] = molecular target: Strep-tagged full-length nibrin (NBN) (human) (UniProt O60934); experiment: pull-down; Strep-Tactin chromatography eluates (30 µg) of HEK293 cells expressing Strep-tagged NBN, p26 or p70, untreated or lysed 30 min after 2 Gy of X-rays, analysed by Western blot
[2] = molecular target: T1, MRE11 (human (endogenous in HEK293)) (UniProt P49959); experiment: condition: only cells not irradiated (basal conditions); co-IP; as a3 but cells not irradiated (basal conditions): immunoprecipitated with anti-MRE11, blotted with anti-Strep-tag and anti-PARP1
T1 sequence: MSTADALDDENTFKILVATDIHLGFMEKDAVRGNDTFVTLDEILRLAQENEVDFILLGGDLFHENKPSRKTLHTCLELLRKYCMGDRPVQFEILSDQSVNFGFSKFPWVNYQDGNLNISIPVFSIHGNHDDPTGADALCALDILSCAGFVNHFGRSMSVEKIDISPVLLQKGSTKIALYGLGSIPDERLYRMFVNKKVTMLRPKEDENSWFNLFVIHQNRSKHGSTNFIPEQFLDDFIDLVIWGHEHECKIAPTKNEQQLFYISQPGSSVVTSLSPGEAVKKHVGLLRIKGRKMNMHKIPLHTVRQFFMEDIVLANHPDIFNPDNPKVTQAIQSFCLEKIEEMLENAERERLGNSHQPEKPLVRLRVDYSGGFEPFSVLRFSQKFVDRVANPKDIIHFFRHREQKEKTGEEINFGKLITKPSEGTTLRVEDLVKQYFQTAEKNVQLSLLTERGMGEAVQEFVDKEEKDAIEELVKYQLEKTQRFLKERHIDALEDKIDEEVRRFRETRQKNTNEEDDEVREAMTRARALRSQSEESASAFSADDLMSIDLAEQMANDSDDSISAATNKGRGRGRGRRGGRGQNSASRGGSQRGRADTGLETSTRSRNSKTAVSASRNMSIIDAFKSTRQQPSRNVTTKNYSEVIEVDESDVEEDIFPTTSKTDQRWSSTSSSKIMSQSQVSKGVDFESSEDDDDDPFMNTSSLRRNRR

[3] = molecular target: T1, MRE11 (human (endogenous in HEK293)); experiment: co-IP; protein eluates of HEK293 cells transfected with Strep-tagged full length NBN or p26, harvested 0.5 h after 2 Gy of X-rays (NBN also in basal conditions), immunoprecipitated with anti-MRE11, blotted with anti-Strep-tag and anti-PARP1

binding [1] | binding [2] | binding [3] | Substance
binds | – | – | CHEK2 (from UniProt O96017 1-543)
binds | – | – | Hsp89-alpha-delta-N (from UniProt P07900 1-732)
– | no binding | binds | Poly(ADP-ribose) polymerase (from UniProt P09874 1-1014)
binds | – | – | nuclear dots-associated protein SP100 (from UniProt P23497 1-879)
binds | – | – | pThr68-CHEK2 (from UniProt O96017 1-543)
